For four substances, step yield and conjugation yield results are on record in patent publication US12084403B2 (THE BOARD OF REGENTS OF THE UNIVERSITY OF TEXAS SYSTEM, priority 2017, dated 2024).

This data set in a line: general procedure: Fmoc solid-phase peptide synthesis; Chlorotrityl chloride resin; HATU/DIPEA. As to conditions: for the 2 steps; for step yield: late stage modification step; for conjugation yield: conjugation step.

Consider Ac-Trp(Boc)-Lys(N3)-Val-Cit-PABC-PNP, for which the step yield came to 38%.

Ac-Trp-Lys(N3)-Val-Cit-PABC-EdDnp displayed a conjugation yield of 36%.

“Ac-Trp(Boc)-Lys(-PEG3-N3)-PEG3-Val-Cit-PABC-PNP”: the step yield worked out at 14%.

In the case of “Ac-Trp-Lys(-PEG3-N3)-PEG3-Val-Cit-PABC-EdDnp”, the conjugation yield came to 34%.
